# Data: the supplement of paper PMC10849652
# The chains behind the UniProt entries cited, without tags or fusion partners. Where a name states a change or a piece, a line headed by the entry shows the natural chain unless it says otherwise.
# UniProt Q96AN5: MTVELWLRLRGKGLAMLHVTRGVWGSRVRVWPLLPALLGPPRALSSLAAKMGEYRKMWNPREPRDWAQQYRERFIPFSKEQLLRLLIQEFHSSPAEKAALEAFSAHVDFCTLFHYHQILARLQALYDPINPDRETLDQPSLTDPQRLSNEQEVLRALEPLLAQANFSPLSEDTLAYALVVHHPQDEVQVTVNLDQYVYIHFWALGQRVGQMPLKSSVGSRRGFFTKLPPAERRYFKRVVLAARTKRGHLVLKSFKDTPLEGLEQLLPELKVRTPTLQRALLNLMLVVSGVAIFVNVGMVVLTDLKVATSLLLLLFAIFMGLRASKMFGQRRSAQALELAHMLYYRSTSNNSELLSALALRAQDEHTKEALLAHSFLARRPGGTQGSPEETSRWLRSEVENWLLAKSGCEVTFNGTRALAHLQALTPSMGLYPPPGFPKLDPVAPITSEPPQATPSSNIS
# UniProt O75204: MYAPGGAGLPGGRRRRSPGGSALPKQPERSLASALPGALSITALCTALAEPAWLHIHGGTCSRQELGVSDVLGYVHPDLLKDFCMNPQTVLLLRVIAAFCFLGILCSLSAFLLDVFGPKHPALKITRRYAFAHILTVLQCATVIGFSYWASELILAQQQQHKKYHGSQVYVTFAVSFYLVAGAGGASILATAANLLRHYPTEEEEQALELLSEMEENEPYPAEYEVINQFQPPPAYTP
# UniProt Q6P9G4: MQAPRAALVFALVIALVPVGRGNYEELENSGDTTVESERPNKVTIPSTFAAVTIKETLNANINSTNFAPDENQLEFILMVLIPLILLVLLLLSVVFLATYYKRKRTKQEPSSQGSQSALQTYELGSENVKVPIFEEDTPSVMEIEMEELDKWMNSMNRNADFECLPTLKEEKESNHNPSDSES
# UniProt Q8WY91: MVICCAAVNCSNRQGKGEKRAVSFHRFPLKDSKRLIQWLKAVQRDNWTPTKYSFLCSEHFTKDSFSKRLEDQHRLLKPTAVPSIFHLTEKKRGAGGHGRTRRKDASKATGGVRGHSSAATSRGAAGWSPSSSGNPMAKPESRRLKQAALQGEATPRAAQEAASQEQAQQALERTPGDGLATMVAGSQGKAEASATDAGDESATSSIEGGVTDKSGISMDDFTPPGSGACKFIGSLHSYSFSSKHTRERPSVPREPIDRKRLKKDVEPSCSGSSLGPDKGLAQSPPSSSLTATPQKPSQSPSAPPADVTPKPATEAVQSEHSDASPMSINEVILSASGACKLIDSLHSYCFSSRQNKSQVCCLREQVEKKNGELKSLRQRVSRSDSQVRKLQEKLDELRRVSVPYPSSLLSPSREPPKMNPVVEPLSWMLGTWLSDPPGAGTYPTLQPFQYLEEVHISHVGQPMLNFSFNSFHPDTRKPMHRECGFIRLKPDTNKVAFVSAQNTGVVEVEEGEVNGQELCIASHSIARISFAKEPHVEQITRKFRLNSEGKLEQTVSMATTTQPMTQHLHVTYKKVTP
# UniProt Q8N9M5: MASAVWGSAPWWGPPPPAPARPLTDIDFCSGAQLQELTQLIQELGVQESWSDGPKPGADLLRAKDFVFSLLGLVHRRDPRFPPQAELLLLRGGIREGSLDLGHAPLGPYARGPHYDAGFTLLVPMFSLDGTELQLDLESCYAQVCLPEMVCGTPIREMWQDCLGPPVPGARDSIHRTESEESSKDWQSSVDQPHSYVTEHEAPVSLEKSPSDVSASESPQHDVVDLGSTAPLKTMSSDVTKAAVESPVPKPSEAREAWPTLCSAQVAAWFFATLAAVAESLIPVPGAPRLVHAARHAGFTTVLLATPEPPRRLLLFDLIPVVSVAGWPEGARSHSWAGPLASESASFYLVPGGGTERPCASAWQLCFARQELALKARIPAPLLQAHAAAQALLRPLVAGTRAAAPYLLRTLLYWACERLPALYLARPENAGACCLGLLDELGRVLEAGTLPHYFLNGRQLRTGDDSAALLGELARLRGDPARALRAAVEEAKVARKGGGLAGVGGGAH
# UniProt O94876, whole entry, looked up: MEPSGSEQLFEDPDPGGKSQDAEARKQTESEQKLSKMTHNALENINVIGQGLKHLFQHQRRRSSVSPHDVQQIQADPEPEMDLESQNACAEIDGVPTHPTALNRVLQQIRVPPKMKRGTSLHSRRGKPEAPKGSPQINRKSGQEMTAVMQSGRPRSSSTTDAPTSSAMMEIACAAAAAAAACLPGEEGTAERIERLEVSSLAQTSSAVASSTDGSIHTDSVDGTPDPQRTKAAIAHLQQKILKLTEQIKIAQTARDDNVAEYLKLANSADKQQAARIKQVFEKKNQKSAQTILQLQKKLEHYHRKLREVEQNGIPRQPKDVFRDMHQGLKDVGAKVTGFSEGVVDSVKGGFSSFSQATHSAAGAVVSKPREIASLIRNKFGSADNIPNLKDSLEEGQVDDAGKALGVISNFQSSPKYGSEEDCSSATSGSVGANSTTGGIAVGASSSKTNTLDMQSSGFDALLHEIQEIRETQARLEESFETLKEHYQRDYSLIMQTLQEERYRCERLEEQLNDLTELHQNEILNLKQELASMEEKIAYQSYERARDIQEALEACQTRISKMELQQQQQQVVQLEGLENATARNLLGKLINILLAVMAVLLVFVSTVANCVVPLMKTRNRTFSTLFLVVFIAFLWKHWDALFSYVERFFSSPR
# UniProt A0PK00: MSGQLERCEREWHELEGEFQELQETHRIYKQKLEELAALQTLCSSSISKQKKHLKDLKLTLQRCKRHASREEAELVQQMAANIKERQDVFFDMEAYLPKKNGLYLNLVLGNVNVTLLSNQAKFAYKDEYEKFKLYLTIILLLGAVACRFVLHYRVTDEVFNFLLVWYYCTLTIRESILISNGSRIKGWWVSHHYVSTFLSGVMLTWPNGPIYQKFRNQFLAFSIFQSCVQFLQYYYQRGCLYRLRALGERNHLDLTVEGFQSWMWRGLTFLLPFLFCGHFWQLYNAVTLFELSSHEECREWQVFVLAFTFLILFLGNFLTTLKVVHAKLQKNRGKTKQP
# UniProt Q7Z402: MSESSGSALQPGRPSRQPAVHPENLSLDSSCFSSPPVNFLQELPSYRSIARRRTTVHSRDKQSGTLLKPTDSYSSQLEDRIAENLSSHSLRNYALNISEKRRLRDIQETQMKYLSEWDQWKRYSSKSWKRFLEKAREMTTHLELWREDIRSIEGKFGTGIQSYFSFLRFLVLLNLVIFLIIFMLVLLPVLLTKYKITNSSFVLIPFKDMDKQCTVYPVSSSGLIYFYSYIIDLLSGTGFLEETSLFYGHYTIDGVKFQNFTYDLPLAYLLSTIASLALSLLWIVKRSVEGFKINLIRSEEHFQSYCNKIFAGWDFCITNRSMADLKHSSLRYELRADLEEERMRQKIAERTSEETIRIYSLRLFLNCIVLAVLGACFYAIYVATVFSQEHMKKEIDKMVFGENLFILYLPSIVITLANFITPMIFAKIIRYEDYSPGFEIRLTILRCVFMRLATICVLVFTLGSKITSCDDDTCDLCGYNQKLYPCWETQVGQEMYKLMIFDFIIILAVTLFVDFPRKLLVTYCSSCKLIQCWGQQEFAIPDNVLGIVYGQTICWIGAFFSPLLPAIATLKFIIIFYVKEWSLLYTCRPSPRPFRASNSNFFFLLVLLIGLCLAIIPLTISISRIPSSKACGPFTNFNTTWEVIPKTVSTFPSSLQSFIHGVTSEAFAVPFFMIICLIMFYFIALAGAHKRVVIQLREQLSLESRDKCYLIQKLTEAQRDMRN
# UniProt P36897: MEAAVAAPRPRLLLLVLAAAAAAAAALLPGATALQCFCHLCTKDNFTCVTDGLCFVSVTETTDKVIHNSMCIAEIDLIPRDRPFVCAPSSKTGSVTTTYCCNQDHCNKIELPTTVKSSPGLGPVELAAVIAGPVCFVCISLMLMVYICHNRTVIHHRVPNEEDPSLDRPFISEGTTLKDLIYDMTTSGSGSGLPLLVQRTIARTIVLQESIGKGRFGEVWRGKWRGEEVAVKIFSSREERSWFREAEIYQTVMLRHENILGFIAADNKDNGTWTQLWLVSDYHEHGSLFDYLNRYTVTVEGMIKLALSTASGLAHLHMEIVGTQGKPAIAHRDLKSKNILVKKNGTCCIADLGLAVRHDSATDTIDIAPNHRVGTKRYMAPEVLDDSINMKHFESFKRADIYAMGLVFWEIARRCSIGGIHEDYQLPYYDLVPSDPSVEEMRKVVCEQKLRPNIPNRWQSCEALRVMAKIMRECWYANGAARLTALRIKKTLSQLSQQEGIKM
# UniProt Q9NQ88: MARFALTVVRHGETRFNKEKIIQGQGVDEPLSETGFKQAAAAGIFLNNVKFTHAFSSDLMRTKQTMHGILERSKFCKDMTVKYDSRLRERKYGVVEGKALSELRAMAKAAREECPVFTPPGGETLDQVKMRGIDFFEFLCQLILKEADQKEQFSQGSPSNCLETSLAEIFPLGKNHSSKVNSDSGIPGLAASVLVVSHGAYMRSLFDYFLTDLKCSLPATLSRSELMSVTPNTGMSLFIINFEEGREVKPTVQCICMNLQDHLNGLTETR
# UniProt Q15583: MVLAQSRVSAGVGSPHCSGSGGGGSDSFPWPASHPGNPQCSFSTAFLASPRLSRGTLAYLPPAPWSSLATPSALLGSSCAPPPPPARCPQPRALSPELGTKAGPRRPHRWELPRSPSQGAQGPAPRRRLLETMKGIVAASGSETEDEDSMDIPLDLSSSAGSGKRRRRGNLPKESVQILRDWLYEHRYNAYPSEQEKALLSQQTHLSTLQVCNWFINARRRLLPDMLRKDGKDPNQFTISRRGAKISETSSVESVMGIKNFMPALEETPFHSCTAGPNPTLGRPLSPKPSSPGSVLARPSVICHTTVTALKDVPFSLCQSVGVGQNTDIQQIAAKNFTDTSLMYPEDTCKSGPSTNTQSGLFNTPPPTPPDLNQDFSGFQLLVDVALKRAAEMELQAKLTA
# UniProt O15321, whole entry, looked up: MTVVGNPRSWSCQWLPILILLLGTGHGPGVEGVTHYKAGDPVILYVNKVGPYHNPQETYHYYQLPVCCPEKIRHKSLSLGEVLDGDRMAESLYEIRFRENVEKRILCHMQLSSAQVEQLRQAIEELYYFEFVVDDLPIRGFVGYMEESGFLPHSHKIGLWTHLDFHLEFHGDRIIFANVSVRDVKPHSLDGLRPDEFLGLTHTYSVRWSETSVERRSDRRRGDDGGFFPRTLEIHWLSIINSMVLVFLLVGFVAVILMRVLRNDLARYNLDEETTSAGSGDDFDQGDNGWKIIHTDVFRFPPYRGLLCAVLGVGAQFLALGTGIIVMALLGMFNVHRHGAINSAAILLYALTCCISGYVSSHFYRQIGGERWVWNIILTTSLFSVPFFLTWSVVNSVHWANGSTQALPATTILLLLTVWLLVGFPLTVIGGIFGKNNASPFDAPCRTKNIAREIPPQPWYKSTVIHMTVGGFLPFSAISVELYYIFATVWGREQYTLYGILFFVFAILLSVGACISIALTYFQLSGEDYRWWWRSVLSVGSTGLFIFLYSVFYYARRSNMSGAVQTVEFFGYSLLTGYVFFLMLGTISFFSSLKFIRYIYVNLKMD
# UniProt Q9NVA4: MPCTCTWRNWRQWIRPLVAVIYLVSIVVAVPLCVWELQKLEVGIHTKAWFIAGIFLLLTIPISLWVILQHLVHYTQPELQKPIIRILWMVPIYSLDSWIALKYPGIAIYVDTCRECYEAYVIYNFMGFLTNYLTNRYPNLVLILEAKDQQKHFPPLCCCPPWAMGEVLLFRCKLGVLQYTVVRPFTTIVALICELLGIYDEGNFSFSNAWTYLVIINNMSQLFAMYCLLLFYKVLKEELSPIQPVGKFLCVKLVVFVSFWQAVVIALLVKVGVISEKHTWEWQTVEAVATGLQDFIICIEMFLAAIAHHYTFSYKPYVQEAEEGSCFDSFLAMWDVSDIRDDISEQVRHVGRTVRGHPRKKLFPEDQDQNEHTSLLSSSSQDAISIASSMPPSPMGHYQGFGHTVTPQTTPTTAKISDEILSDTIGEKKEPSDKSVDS
# The other results are listed elsewhere or left out.
# Legend:
# Test in all cases: log2 fold change, soluble protein after heating vs DMSO (PISA); higher = thermal stabilisation; K562 lysate, 10 uM; active = over 0.2 and 3.5 SD of the protein, either way, in both replicates (recomputed)
# alvocidib = compound: CN1CC[C@H](c2c(O)cc(O)c3c(=O)cc(-c4ccccc4Cl)oc23)[C@H](O)C1 [alvocidib]
# Outline: (§1)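 Pellets of K562 cells were dounce-homogenised in PBS pH 7.4 with 1 mM MgCl2, and the crude extract was held at 1 mg/mL protein for a 30 min treatment with 10 μM compound. Aliquots were heated for 3 min over 48°C-58°C and pooled before NP-40 was added to 0.5% at 4°C. The supernatant from 21,000xg for 90 min was quantified by TMTpro 16plex LC-MS/MS with channel sums equalised. Values are reported from duplicates as log-two fold change in thermal stability relative to solvent controls.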
# [1] = compound: C[C@H](C1=CC=C(C=C1)C(=O)NC2=C3C=CNC3=NC=C2)N
# Outline: as §1
# gandotinib = compound: Cc1cc(Nc2cc(CN3CCOCC3)c3nc(C)c(Cc4ccc(Cl)cc4F)n3n2)n[nH]1 [gandotinib]
# Outline: as §1
# [2] = compound: Cc1cccc(CC(=O)N2CCc3c2ccc(-c2cn(C)c4ncnc(N)c24)c3F)n1
# Outline: as §1
# Tubastatin A = compound: CN1CCc2c(c3ccccc3n2Cc2ccc(C(=O)NO)cc2)C1 [Tubastatin A]
# Outline: as §1
# defactinib = compound: CNC(=O)c1ccc(Nc2ncc(C(F)(F)F)c(NCc3nccnc3N(C)S(C)(=O)=O)n2)cc1 [defactinib]
# Outline: as §1
# [3] = compound: CNc1nc(-c2ccc3c(N)n[nH]c3c2)cc(N2C[C@@H](C(=O)NC3CCCCC3)CC[C@H]2C)n1
# Outline: as §1
# encorafenib = compound: COC(=O)N[C@@H](C)CNc1nccc(-c2cn(C(C)C)nc2-c2cc(Cl)cc(NS(C)(=O)=O)c2F)n1 [encorafenib]
# Outline: as §1
# [4] = compound: COC(=O)[C@H](CCSC)NC(=O)C1=C(C=C(C=C1)NC[C@H](CS)N)C2=CC=CC=C2
# Outline: as §1
# alisertib = compound: COc1cc(Nc2ncc3c(n2)-c2ccc(Cl)cc2C(c2c(F)cccc2OC)=NC3)ccc1C(=O)O [alisertib]
# Outline: as §1
# [5] = compound: COc1cc2nc(-c3cc(F)ccc3O)nc(N[C@@H]3CNC[C@H]3C(C)(C)O)c2cc1OC
# Outline: as §1
# gefitinib = compound: COc1cc2ncnc(Nc3ccc(F)c(Cl)c3)c2cc1OCCCN1CCOCC1 [gefitinib]
# Outline: as §1
# lapatinib = compound: CS(=O)(=O)CCNCc1ccc(-c2ccc3ncnc(Nc4ccc(OCc5cccc(F)c5)c(Cl)c4)c3c2)o1 [lapatinib]
# Outline: as §1
# crizotinib = compound: C[C@@H](Oc1cc(-c2cnn(C3CCNCC3)c2)cnc1N)c1c(Cl)ccc(F)c1Cl [crizotinib]
# Outline: as §1
# duvelisib = compound: C[C@H](Nc1ncnc2nc[nH]c12)c1cc2cccc(Cl)c2c(=O)n1-c1ccccc1 [duvelisib]
# Outline: as §1
# tozasertib = compound: Cc1cc(Nc2cc(N3CCN(C)CC3)nc(Sc3ccc(NC(=O)C4CC4)cc3)n2)n[nH]1 [tozasertib]
# Outline: as §1
# doramapimod = compound: Cc1ccc(-n2nc(C(C)(C)C)cc2NC(=O)Nc2ccc(OCCN3CCOCC3)c3ccccc23)cc1 [doramapimod]
# Outline: as §1
# [6] = compound: CNC(=O)C1=CC=CC=C1NC2=NC(=NC=C2Cl)NC3=C(C=C(C=C3)N4CCOCC4)OC
# Outline: as §1
# pictilisib = compound: CS(=O)(=O)N1CCN(Cc2cc3nc(-c4cccc5[nH]ncc45)nc(N4CCOCC4)c3s2)CC1 [pictilisib]
# Outline: as §1
# bafetinib = compound: Cc1ccc(NC(=O)c2ccc(CN3CC[C@H](N(C)C)C3)c(C(F)(F)F)c2)cc1Nc1nccc(-c2cncnc2)n1 [bafetinib]
# Outline: as §1
target,measurement,setting,value
TJP1 (UniProt H0Y3R8),log2 fold change,alvocidib,inactive: 0.079
same,log2 fold change,[1],inactive: 0.068
same,log2 fold change,gandotinib,inactive: -0.057
same,log2 fold change,[2],inactive: -0.063
TMEM143 (UniProt Q96AN5),log2 fold change,alvocidib,inactive: -0.065
same,log2 fold change,Tubastatin A,inactive: 0.181
same,log2 fold change,defactinib,inactive: 0.327
same,log2 fold change,[3],inactive: 0.324
same,log2 fold change,encorafenib,inactive: 0.34
same,log2 fold change,[4],inactive: -0.097
same,log2 fold change,alisertib,inactive: -0.204
same,log2 fold change,[5],inactive: -0.058
same,log2 fold change,gefitinib,inactive: -0.227
same,log2 fold change,lapatinib,inactive: 0.027
same,log2 fold change,crizotinib,inactive: -0.011
same,log2 fold change,[1],inactive: 0.102
same,log2 fold change,duvelisib,inactive: -0.236
same,log2 fold change,gandotinib,inactive: 0.134
same,log2 fold change,tozasertib,inactive: 0.011
same,log2 fold change,doramapimod,inactive: -0.111
same,log2 fold change,[2],inactive: 0.068
TMEM127 (UniProt O75204),log2 fold change,[6],inactive: -0.04
same,log2 fold change,defactinib,inactive: -0.037
same,log2 fold change,[3],inactive: -0.099
same,log2 fold change,encorafenib,inactive: 0.037
same,log2 fold change,[4],inactive: 0.019
same,log2 fold change,pictilisib,inactive: 0.009
same,log2 fold change,duvelisib,inactive: 0.075
same,log2 fold change,tozasertib,inactive: 0.016
same,log2 fold change,bafetinib,inactive: 0.021
TMEM154 (UniProt Q6P9G4),log2 fold change,Tubastatin A,inactive: 0.063
same,log2 fold change,[3],inactive: -0.099
same,log2 fold change,encorafenib,inactive: -0.015
same,log2 fold change,[4],inactive: 0.023
same,log2 fold change,crizotinib,inactive: 0.035
same,log2 fold change,duvelisib,inactive: 0.039
same,log2 fold change,tozasertib,inactive: 0.03
same,log2 fold change,doramapimod,inactive: -0.146
THAP4 (UniProt Q8WY91),log2 fold change,alvocidib,inactive: -0.033
same,log2 fold change,[1],inactive: -0.02
same,log2 fold change,gandotinib,inactive: 0.033
same,log2 fold change,[2],inactive: 0.151
THOC2 (UniProt H0Y7U4),log2 fold change,Tubastatin A,inactive: 0.121
same,log2 fold change,[3],inactive: -0.042
same,log2 fold change,[5],inactive: 0.039
same,log2 fold change,lapatinib,inactive: -0.011
same,log2 fold change,pictilisib,inactive: 0.016
same,log2 fold change,crizotinib,inactive: 0.011
same,log2 fold change,duvelisib,inactive: -0.03
same,log2 fold change,doramapimod,inactive: 0.138
same,log2 fold change,bafetinib,inactive: -0.051
THAP9 (UniProt Q9H5L6),log2 fold change,alvocidib,inactive: -0.249
same,log2 fold change,Tubastatin A,inactive: 0.053
same,log2 fold change,defactinib,inactive: -0.067
same,log2 fold change,[3],inactive: 0.476
same,log2 fold change,encorafenib,inactive: -0.009
same,log2 fold change,[4],inactive: 0.085
same,log2 fold change,[5],inactive: 0.179
same,log2 fold change,lapatinib,inactive: -0.035
same,log2 fold change,pictilisib,inactive: -0.154
same,log2 fold change,crizotinib,inactive: -0.203
same,log2 fold change,[1],active: -0.675
same,log2 fold change,duvelisib,inactive: 0.012
same,log2 fold change,gandotinib,inactive: 0.429
same,log2 fold change,tozasertib,inactive: -0.045
same,log2 fold change,doramapimod,inactive: 0.009
same,log2 fold change,bafetinib,inactive: -0.007
same,log2 fold change,[2],inactive: 0.323
TMEM102 (UniProt Q8N9M5),log2 fold change,Tubastatin A,inactive: 0.079
same,log2 fold change,defactinib,inactive: -0.052
same,log2 fold change,encorafenib,inactive: 0.079
same,log2 fold change,[4],inactive: 0.119
same,log2 fold change,alisertib,inactive: -0.315
same,log2 fold change,gefitinib,inactive: -0.094
same,log2 fold change,crizotinib,inactive: -0.042
same,log2 fold change,tozasertib,inactive: -0.075
same,log2 fold change,doramapimod,inactive: 0.116
TMCC1 (UniProt O94876),log2 fold change,alvocidib,inactive: 0
same,log2 fold change,defactinib,inactive: 0.113
same,log2 fold change,[3],inactive: -0.132
same,log2 fold change,encorafenib,inactive: 0.242
same,log2 fold change,[4],inactive: -0.106
same,log2 fold change,[1],inactive: -0.191
same,log2 fold change,duvelisib,inactive: -0.159
same,log2 fold change,gandotinib,inactive: 0.406
same,log2 fold change,tozasertib,inactive: -0.024
same,log2 fold change,[2],inactive: 0.186
TLE3 (UniProt H0YL70),log2 fold change,[3],inactive: 0.153
same,log2 fold change,duvelisib,inactive: 0.037
TMEM120B (UniProt A0PK00),log2 fold change,[6],inactive: -0.022
same,log2 fold change,defactinib,inactive: 0.119
same,log2 fold change,[3],inactive: 0.317
same,log2 fold change,encorafenib,inactive: 0.036
same,log2 fold change,[4],inactive: 0.12
same,log2 fold change,[5],inactive: 0.023
same,log2 fold change,lapatinib,inactive: 0.02
same,log2 fold change,crizotinib,inactive: -0.032
same,log2 fold change,duvelisib,inactive: -0.068
same,log2 fold change,tozasertib,inactive: -0.027
same,log2 fold change,doramapimod,inactive: -0.027
TMC7 (UniProt Q7Z402),log2 fold change,alvocidib,inactive: -0.005
same,log2 fold change,[6],inactive: 0.038
same,log2 fold change,[1],inactive: 0.006
same,log2 fold change,gandotinib,inactive: 0.028
same,log2 fold change,[2],inactive: -0.142
TGFBR1 isoform 2 (UniProt P36897),log2 fold change,[6],inactive: 0.156
same,log2 fold change,[3],inactive: -0.004
same,log2 fold change,encorafenib,inactive: -0.017
same,log2 fold change,[4],inactive: 0.077
same,log2 fold change,duvelisib,inactive: -0.004
same,log2 fold change,tozasertib,inactive: 0.022
TIGAR (UniProt Q9NQ88),log2 fold change,Tubastatin A,inactive: 0.206
same,log2 fold change,[6],inactive: -0.097
same,log2 fold change,defactinib,inactive: -0.133
same,log2 fold change,[3],inactive: -0.243
same,log2 fold change,encorafenib,inactive: -0.013
same,log2 fold change,[4],inactive: -0.302
same,log2 fold change,crizotinib,inactive: -0.034
same,log2 fold change,duvelisib,inactive: 0.106
same,log2 fold change,tozasertib,inactive: 0.041
same,log2 fold change,doramapimod,inactive: 0.127
TGIF1 (UniProt Q15583),log2 fold change,[6],inactive: 0.067
same,log2 fold change,crizotinib,inactive: -0.057
same,log2 fold change,doramapimod,inactive: 0.088
TM9SF1 (UniProt O15321),log2 fold change,Tubastatin A,inactive: 0.084
same,log2 fold change,[6],inactive: 0.023
same,log2 fold change,defactinib,inactive: -0.21
same,log2 fold change,[3],inactive: -0.07
same,log2 fold change,encorafenib,inactive: 0.002
same,log2 fold change,[4],inactive: -0.022
same,log2 fold change,alisertib,inactive: 0.032
same,log2 fold change,[5],inactive: 0.002
same,log2 fold change,gefitinib,inactive: 0.03
same,log2 fold change,lapatinib,inactive: -0.007
same,log2 fold change,pictilisib,inactive: -0.173
same,log2 fold change,crizotinib,inactive: -0.032
same,log2 fold change,duvelisib,inactive: -0.045
same,log2 fold change,tozasertib,inactive: 0.078
same,log2 fold change,doramapimod,inactive: 0.096
same,log2 fold change,bafetinib,inactive: 0.03
TMEM184C (UniProt Q9NVA4),log2 fold change,Tubastatin A,inactive: 0.066
same,log2 fold change,[6],inactive: -0.042
same,log2 fold change,[3],inactive: -0.004
same,log2 fold change,encorafenib,inactive: -0.041
same,log2 fold change,[4],inactive: -0.056
same,log2 fold change,alisertib,inactive: -0.042
same,log2 fold change,[5],inactive: 0.137
same,log2 fold change,gefitinib,inactive: 0.071
same,log2 fold change,lapatinib,inactive: 0.077
same,log2 fold change,pictilisib,inactive: 0.069
same,log2 fold change,crizotinib,inactive: 0.035
same,log2 fold change,duvelisib,inactive: -0.001
same,log2 fold change,tozasertib,inactive: 0.057
same,log2 fold change,doramapimod,inactive: -0.064
same,log2 fold change,bafetinib,inactive: -0.051

# A different layout for part of the listing above:
target	measurement	setting	value
THAP9 (UniProt Q9H5L6)	log2 fold change	[4]	inactive: 0.085
TMCC1 (UniProt O94876)	log2 fold change	[1]	inactive: -0.191
TMEM120B (UniProt A0PK00)	log2 fold change	defactinib	inactive: 0.119
same	log2 fold change	tozasertib	inactive: -0.027
TM9SF1 (UniProt O15321)	log2 fold change	encorafenib	inactive: 0.002
same	log2 fold change	[5]	inactive: 0.002

# Some of the entries so far, as tab-separated lines:
target	measurement	setting	value
TGFBR1 isoform 2 (UniProt P36897)	log2 fold change	encorafenib	inactive: -0.017
TIGAR (UniProt Q9NQ88)	log2 fold change	doramapimod	inactive: 0.127

# Quoted from the results shown for reference:
target,measurement,setting,value
TMCC1 (UniProt O94876),log2 fold change,duvelisib,inactive: -0.159
same,log2 fold change,gandotinib,inactive: 0.406
